Reference: paper PMC5928194
No constants are given. Whether binding was seen depends on the method and setting. In cells and extracts the contact can be indirect. Some binding calls cover weakened binding; strength is not graded here.

By UniProt entry, the sequences of proteins in these tests, tags left out. Where a name states a change or a piece, a line headed by the entry shows the natural chain unless it says otherwise.
UniProt Q9Y530: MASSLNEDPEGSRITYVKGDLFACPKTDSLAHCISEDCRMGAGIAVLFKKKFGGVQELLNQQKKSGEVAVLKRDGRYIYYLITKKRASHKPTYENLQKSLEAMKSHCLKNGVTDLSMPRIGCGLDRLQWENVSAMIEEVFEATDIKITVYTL
UniProt Q86WJ1: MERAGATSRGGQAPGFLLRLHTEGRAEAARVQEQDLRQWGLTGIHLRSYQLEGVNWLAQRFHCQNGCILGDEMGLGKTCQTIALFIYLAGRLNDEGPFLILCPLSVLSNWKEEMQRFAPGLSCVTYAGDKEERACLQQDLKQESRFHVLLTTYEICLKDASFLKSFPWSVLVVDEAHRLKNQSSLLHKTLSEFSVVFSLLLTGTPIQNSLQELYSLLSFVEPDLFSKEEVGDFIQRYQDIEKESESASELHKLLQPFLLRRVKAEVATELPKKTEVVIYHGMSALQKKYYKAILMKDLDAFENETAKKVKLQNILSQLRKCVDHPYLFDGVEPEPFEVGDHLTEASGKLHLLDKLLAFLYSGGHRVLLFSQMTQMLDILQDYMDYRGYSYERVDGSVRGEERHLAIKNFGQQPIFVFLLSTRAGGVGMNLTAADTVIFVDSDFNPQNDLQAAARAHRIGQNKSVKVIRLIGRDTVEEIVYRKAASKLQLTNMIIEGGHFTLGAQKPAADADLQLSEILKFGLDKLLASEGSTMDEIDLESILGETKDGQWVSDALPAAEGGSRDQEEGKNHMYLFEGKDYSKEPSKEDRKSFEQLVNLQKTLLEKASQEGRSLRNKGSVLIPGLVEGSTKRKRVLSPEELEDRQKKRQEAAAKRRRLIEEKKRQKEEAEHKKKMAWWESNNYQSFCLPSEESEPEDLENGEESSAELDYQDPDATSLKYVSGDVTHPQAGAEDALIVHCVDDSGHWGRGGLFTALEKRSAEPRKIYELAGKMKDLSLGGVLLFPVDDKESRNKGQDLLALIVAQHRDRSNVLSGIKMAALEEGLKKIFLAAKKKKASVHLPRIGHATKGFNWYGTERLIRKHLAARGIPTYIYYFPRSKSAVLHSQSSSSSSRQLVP
UniProt Q08945: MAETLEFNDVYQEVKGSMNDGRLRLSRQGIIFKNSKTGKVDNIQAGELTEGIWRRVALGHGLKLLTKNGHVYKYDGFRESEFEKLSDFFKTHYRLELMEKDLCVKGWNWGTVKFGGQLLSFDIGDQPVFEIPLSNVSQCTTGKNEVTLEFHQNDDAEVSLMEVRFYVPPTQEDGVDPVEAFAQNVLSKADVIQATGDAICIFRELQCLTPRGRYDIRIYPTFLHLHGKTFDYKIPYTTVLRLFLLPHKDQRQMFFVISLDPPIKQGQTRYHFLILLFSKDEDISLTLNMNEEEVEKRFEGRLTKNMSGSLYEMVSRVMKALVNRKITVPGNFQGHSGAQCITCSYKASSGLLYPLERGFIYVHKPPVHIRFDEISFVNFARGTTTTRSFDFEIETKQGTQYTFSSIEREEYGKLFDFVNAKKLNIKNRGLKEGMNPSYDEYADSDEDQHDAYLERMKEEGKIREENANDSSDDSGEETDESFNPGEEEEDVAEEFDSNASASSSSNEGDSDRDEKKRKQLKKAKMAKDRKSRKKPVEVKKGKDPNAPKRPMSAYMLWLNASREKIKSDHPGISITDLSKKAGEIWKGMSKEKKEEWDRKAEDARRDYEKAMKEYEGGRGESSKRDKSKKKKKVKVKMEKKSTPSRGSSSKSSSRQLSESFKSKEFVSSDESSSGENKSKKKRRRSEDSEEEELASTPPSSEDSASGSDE
UniProt P09874: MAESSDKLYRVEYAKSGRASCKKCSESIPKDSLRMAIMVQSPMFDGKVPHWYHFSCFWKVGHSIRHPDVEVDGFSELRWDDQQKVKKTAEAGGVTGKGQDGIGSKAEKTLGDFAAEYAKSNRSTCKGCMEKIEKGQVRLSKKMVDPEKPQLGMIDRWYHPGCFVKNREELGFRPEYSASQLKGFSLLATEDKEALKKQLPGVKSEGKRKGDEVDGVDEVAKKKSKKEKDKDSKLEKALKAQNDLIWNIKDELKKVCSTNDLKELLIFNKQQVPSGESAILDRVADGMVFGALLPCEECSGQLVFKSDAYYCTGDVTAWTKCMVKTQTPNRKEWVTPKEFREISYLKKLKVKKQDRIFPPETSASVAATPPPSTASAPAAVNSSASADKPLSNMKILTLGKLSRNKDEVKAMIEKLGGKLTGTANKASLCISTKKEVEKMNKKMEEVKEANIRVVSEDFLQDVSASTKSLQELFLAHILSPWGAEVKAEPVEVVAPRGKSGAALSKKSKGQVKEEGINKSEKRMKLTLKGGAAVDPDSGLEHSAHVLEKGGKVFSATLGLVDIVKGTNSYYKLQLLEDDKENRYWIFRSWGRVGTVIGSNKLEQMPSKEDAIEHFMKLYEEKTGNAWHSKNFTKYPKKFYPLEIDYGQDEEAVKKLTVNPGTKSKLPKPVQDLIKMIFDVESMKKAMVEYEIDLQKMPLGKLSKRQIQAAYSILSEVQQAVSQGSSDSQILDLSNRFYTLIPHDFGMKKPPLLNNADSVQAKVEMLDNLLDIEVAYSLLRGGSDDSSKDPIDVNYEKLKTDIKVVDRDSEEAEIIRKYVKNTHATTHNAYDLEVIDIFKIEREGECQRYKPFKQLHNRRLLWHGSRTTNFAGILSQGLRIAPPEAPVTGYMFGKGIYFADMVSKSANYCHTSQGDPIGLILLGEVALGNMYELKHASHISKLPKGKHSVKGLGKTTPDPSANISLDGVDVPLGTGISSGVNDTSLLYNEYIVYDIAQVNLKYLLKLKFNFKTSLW
UniProt P18887: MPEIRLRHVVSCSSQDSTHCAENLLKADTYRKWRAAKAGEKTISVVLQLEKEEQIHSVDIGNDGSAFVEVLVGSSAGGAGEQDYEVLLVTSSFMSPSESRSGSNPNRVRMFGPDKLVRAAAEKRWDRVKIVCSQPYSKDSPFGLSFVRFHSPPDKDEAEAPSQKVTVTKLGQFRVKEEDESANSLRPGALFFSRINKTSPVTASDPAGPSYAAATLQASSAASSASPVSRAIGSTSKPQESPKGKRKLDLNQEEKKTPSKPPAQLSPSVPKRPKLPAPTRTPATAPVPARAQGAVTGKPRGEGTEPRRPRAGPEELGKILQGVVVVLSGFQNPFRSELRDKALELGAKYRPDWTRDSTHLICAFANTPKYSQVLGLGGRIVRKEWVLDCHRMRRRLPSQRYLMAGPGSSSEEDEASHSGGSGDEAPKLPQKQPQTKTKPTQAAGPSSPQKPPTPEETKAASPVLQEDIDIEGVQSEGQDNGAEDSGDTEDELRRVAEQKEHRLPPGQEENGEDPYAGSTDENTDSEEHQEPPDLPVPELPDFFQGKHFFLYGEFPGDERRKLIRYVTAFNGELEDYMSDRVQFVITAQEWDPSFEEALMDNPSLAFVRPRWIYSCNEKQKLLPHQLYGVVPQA

How the values were obtained:
FLAG-TARG1-G123E (human) = FLAG-TARG1-G123E (human) (UniProt Q9Y530); assay: co-IP; FLAG-TARG1 (wildtype or G123E) transiently expressed in HEK293; TAP lysis buffer without olaparib (lysis-induced PARylation); anti-FLAG M2 beads, 4 °C; endogenous partners detected by Western blot
[1] = molecular target: FLAG-TARG1 wildtype (human) (UniProt Q9Y530); assay: co-IP; FLAG-TARG1 transiently expressed in HEK293 or HEK293T; TAP lysis buffer with 10 µM olaparib; anti-FLAG M2 beads, 4 °C; endogenous partners detected by Western blot

Substance | binding (FLAG-TARG1-G123E (human)) | binding [1]
CHD1L (from UniProt Q86WJ1 1-897) | no binding | 
SSRP1 (from UniProt Q08945 1-709) | no binding | 
ARTD1 (from UniProt P09874 1-1014) |  | binds
XRCC1 (from UniProt P18887 1-633) | no binding | 
